{"sequences": {"note": "By UniProt entry, the sequences of proteins in these tests, tags left out. Where a name states a change or a piece, a line headed by the entry shows the natural chain unless it says otherwise.", "UniProt P46154": "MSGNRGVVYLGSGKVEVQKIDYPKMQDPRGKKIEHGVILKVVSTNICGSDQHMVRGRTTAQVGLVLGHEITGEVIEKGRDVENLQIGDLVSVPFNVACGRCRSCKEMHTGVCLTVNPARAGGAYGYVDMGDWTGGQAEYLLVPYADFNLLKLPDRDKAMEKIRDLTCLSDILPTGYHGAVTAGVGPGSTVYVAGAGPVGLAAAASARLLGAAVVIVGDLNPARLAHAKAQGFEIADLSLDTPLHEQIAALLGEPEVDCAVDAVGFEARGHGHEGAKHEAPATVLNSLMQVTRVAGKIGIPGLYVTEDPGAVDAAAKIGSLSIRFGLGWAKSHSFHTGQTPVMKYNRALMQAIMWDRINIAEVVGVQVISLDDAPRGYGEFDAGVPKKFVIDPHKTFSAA"}, "source": "PubChem BioAssay AID2680", "about": "(National Center for Advancing Translational Sciences (NCATS), 2010)", "target": "Glutathione-independent formaldehyde dehydrogenase (Pseudomonas putida) (UniProt P46154)", "experiment": "Counterscreen for JMJD2E Inhibitors: qHTS Assay for Inhibitors of Formaldehyde Dehydrogenase (FDH)", "details": "FDH enzyme assay, NADH fluorescence kinetic; at 56.7 µM (top of the series); active = well fitted inhibition curve with a large enough effect; inconclusive = small, poorly fitted or top-dose-only effect; inactive = no such curve, though single readings can be large or run the other way", "protocol": "This assay is a counterscreen for a related assay for inhibitors of JMJD2E. See AID 2147 for details. The JMJD2E assay utilized an FDH-coupled protocol. To screen for false positive results in the primary assay due to inhibition of the formaldehyde dehydrogenase coupled enzyme, an FDH-only assay was run using FDH as the enzyme (0.000025 U/uL final concentration) and 10 uM formaldehyde and 0.25 mM NAD+ as the substrate, and following the same fluidic protocol as described in AID 2147 for the coupled HTS assay. Actives in this assay are likely false positives of the primary HTS.\nAssay is initiated by dispensing 3 uL of enzyme solution (4/3x final concentration) into a 1,536-well assay plate using a nanoliter solenoid-based dispenser (Beckman-Coulter, Fullerton, CA). After pintool transfer of compound solution, the assay plate is incubated at room temperature for 10 minutes, followed by a 1 uL addition of 4x substrate solution to initiate the reaction (final assay volume of 4 uL). The plate is then manually transferred into the ViewLux reader for kinetic measurements.", "note": "Inconclusive results, whose numbers are uncertain, are shown.", "data": [{"smiles": "CN1CC[C@]2(C)c3cc(O)ccc3N(C)[C@@H]12", "values": [{"measurement": "activity, negative = inhibition", "result": "inconclusive: -68.2% [inhibitor]"}]}]}
